Reference: paper PMC6100082, “Pyridine-Ureas as Potential Anticancer Agents: Synthesis and In Vitro Biological Evaluation” (Molecules : A Journal of Synthetic Chemistry and Natural …, 2018)

Test system: breast cancer MCF-7 cell line
Assay: In vitro anti-proliferative activity, MTT assay
Format: cell-based, human
Conditions: MCF-7, 48 h treatment, ratio of IC50
Protocol: The in vitro anti-proliferative activity of the newly prepared pyridine-ureas 8a–n was examined against breast cancer MCF-7 cell line. The assay was carried out, as triplicates, utilizing the 3-(4,5-dimethylthiazol-2-yl)-2,5-diphenyltetrazolium bromide (MTT) colorimetric assay as described by T. Mosmann. Doxorubicin and Sorafenib were included in this assay as a reference drug.
MCF-7 (human breast cancer cell line) and WI-38 (human lung fibroblast cell line), were obtained from American Type Culture Collection (Manassas, VA, USA). The cells were propagated in DMEM and supplemented with 10% heat-inactivated FBS (Hyclone), 10 μg/mL of insulin (Manufacturer, Sigma, St. Louis, MO, USA), and 1% penicillin-streptomycin. MTT assay was utilized to examine the in vitro anti-proliferative activity of the newly prepared ureas following the reported procedures. […] The data presented are the mean of at least three separate experiments.

SMILES: COc1ccc(-c2ccc(NC(=O)Nc3ccc(Cl)c(C(F)(F)F)c3)c(C)n2)cc1 [Compound 8e, 1-(4-Chloro-3-(trifluoromethyl)phenyl)-3-(6-(4-methoxyphenyl)-2-methylpyridin-3-yl)urea]
- times more active than Doxorubicin: 8.7 times
- times more active than Sorafenib: 20 times
